No constants are given. Whether binding was seen depends on the method and setting. For some of these results: In cells and extracts the contact can be indirect. Some binding calls cover weakened binding; strength is not graded here.
T1: peptide consisting of the amino acid sequence shown in SEQ ID NO: 66 (partial CAPRIN-1 sequence) (human)
T1 sequence (peptide): QQPQAASPSVPE

T2: human CAPRIN-1 as expressed on human breast cancer cell line MDA-MB-231V and in human cancer tissues (human) (UniProt Q14444)
T2 sequence (looked up): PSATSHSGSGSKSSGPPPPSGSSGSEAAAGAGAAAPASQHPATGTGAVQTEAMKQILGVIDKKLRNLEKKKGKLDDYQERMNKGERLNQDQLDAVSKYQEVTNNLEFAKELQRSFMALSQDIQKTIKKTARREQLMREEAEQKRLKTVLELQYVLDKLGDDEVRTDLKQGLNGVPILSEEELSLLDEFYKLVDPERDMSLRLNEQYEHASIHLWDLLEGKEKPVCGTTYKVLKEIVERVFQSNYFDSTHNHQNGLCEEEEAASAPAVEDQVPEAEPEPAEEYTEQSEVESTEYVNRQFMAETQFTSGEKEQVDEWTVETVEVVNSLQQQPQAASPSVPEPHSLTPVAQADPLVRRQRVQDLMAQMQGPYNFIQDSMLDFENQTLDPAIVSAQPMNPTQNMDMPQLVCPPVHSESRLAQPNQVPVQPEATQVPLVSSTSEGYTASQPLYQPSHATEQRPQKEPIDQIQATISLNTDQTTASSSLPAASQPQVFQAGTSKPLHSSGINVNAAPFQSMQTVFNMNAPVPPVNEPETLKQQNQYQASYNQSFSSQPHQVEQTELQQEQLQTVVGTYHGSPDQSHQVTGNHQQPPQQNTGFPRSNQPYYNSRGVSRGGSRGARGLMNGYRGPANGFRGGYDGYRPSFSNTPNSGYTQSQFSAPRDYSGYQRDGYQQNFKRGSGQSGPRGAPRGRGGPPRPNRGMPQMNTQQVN

T3: mouse CAPRIN-1 in tumor tissue from transplanted mouse cancer cells (EMT-6, B16F10) (mouse) (UniProt Q60865)
T3 sequence (looked up): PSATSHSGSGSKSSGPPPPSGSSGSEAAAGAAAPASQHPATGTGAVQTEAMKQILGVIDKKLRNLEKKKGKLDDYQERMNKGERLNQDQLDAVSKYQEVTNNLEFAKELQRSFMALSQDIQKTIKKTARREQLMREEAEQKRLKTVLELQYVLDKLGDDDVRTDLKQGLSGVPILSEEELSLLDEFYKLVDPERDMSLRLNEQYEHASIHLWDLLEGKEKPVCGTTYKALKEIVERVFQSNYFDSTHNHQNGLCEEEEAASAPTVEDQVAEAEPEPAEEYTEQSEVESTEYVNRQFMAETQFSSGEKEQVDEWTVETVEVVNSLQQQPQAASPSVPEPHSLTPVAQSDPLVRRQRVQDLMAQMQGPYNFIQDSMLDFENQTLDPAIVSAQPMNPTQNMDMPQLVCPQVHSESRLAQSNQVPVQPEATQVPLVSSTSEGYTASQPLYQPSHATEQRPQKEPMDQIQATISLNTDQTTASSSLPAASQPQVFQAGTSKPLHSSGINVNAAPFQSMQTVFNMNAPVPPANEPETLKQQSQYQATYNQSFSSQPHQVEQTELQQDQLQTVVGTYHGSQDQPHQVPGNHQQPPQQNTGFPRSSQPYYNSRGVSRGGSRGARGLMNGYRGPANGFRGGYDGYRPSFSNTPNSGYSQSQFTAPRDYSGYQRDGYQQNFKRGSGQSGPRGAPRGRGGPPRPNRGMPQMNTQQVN

T4: peptide shown in SEQ ID NO: 63 (partial CAPRIN-1 sequence) (human)
T4 sequence (peptide): FTSGEKEQVDEW


Assays:
[1] = target: T1, peptide consisting of the amino acid sequence shown in SEQ ID NO: 66 (partial CAPRIN-1 sequence) (human); experiment: trypsin or chymotrypsin digestion of antibody-bound recombinant CAPRIN-1, protein G pull-down, MS/MS
[2] = target: T2, human CAPRIN-1 as expressed on human breast cancer cell line MDA-MB-231V and in human cancer tissues (human); experiment: flow cytometry on MDA-MB-231V cells expressing CAPRIN-1
[3] = target: T3, mouse CAPRIN-1 in tumor tissue from transplanted mouse cancer cells (EMT-6, B16F10) (mouse); experiment: immunohistochemical staining of frozen EMT-6 tumor sections from mice, 10 µg/mL antibody
[4] = target: dog CAPRIN-1 in dog breast cancer tissues (dog); experiment: immunohistochemical staining of frozen dog breast cancer tissue sections, 10 µg/mL antibody
[5] = target: T2, human CAPRIN-1 as expressed on human breast cancer cell line MDA-MB-231V and in human cancer tissues (human); experiment: immunohistochemical staining of paraffin-embedded human cancer tissue arrays, 10 µg/mL antibody
[6] = target: T4, peptide shown in SEQ ID NO: 63 (partial CAPRIN-1 sequence) (human); experiment: ELISA, peptide (30 µg/mL solution) coupled to Immobilizer Amino plate, culture supernatant of #14
[7] = target: T2, human CAPRIN-1 as expressed on human breast cancer cell line MDA-MB-231V and in human cancer tissues (human); experiment: immunohistochemical staining of paraffin-embedded human breast cancer tissue arrays, 10 µg/mL antibody

| binding [1] | binding [2] | binding [3] | binding [4] | binding [5] | binding [6] | binding [7] | Binder |
| --- | --- | --- | --- | --- | --- | --- | --- |
| binds |  |  |  |  |  |  | chicken anti-human CAPRIN-1 monoclonal antibody #11 (antibody, V domains shown, Chicken hybridoma antibody; also called chicken monoclonal antibody #11) VH: AVTLDESGGGLQMSRGGLSLVCKASGFDFSSYQMNWIRQAPGKGLEFVAAINKFGNSTGHGAAVKGRVTISRDNGQSTVRLQLNNLRAEDTAIYFCTKHAYGYCGSGTWCAAGEIDAWGHGTEVIVSS VL: QAASTQPSSVSANPGETVEITCSGGGSYSYGWFQQKSPGSAPVTVIYYNNKRPSDIPSRFSGSKSGSTGTLTITGVQADDEAVYYCGSGDSTDTAVFGAGTTLTVLG |
|  | binds | binds | binds | binds | binds | binds | mouse anti-human CAPRIN-1 monoclonal antibody #14 (antibody, V domains shown) VH: GAELVKPGASVKLSCTASGLNIRDIYMHWVKQRPEQGLEWIGKIDPANGNTKYDPKFQGKATITADTSSNTAYVQLSSLTSEDTAVYYCAGTGDYWGQGTTVTVSS VL: GTCGDIVMSQSPSSLAVSAGEKVTMSCKSSQSLLNSRTRKNYLAWVQHKPGQSPRLLIYWASTRESGVPDRFTGSGSGTDFTLTISSVQAEDLAVYYCRQSYNLVTFGAGPS |
